# Test results: paper doi:10.1101/2024.03.04.583415
# Protein sequences, listed by entry. Tags and fused reporters are not part of them.
# UniProt Q96KQ7: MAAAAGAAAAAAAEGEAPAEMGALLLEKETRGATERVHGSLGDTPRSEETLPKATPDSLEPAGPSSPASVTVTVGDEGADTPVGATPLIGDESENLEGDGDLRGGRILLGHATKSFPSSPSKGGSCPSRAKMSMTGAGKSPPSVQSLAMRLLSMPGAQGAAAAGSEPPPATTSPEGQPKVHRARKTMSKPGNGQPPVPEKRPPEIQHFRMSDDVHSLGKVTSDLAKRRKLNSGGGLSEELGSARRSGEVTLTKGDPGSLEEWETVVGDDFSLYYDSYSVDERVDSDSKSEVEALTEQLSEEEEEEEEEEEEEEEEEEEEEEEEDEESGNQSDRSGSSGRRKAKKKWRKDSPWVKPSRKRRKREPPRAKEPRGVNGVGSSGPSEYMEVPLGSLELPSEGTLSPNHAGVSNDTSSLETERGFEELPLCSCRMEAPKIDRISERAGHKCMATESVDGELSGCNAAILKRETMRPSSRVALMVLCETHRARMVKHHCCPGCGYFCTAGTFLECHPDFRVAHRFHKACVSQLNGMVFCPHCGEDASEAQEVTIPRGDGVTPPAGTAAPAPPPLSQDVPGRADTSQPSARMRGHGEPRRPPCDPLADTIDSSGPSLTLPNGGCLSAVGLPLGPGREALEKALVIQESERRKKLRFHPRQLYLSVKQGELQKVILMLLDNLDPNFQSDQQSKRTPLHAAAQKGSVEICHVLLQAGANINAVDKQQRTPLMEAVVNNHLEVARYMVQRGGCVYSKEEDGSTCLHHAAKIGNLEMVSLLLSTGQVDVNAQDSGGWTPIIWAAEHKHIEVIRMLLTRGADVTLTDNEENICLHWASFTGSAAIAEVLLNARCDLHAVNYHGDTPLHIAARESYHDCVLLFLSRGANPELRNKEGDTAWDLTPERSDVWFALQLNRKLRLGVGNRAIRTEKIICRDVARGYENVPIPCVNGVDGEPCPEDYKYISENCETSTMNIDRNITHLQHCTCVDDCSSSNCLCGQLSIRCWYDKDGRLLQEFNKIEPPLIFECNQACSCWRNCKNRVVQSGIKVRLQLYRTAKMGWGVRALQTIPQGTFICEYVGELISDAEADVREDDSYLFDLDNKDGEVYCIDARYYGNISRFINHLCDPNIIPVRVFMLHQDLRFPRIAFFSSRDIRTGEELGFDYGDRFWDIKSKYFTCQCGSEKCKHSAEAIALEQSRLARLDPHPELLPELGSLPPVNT
# Target: histone methyltransferase G9a (human (endogenous in PBMCs of COVID-19 patients)) (UniProt Q96KQ7)
# Assay: affinity purification with mass spectrometry
binder,measurement,value
"ribosomal (r)RNA methylase fibrillarin (enzyme, UniProt P22087 1-321) MKPGFSPRGGGFGGRGGFGDRGGRGGRGGFGGGRGRGGGFRGRGRGGGGGGGGGGGGGRGGGGFHSGGNRGRGRGGKRGNQSGKNVMVEPHRHEGVFICRGKEDALVTKNLVPGESVYGEKRVSISEGDDKIEYRAWNPFRSKLAAAILGGVDQIHIKPGAKVLYLGAASGTTVSHVSDIVGPDGLVYAVEFSHRSGRDLINLAKKRTNIIPVIEDARHPHKYRMLIAMVDVIFADVAQPDQTRIVALNAHTFLRNGGHFVISIKANCIDSTASAEAVFASEVKKMQQENMKPQEQLTLEPYERDHAVVVGVYRPPPKVKN",binding,binds

# These are yes or no findings as the source states them, for the method shown. Binding seen in cells or lysates may run through a third protein. These calls come from enrichment with a bait or labelling near it, and not all partners need be listed.
